These are yes or no findings as the source states them, for the method shown.
Legend:
[1] = biological target: Recombinant FcγRIIb with C-terminus Biotin (human) (UniProt P31994); test: split reporter; homogeneous competition assay in solution for FcγRIIb: FcγRIIb-Biotin mixed 4:1 with Streptavidin-SmBiT (tetrameric, avidity); PBS with 10% superblock; IC50 only a qualitative indicator of binding; both purified
[2] = biological target: Recombinant FcγRI with C-terminus Biotin (human) (UniProt P12314); test: split reporter; homogeneous competition assay in solution for FcγRI: tracer 0.25 nM, target 0.075 nM (FcγRI-Biotin 1:1 with Streptavidin-SmBiT); PBS with 10% superblock; IC50 only a qualitative indicator of binding; both purified
[3] = biological target: Recombinant FcγRIIIa (F158) with C-terminus Biotin (human) (UniProt P08637); test: split reporter; homogeneous competition assay in solution for FcγRIIa and FcγRIIIa variants: sample competes with IgG-LgBiT tracer for FcγR-Biotin mixed 1:1 with Streptavidin-SmBiT; 30–60 min; PBS with 10% superblock; IC50 equivalent to apparent affinity (KD); both purified
[4] = biological target: Recombinant FcγRIIa (H131) with C-terminus Biotin (human) (UniProt P12318); test: as above

Sequences of proteins named here, by UniProt entry; tags and fusion partners are left off. Residues count along the entry.
UniProt P31994, residues 43-217: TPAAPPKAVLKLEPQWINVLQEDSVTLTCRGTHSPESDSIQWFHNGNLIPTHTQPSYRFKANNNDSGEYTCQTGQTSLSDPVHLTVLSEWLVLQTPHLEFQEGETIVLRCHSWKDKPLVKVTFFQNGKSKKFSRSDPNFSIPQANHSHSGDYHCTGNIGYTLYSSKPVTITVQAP
UniProt P12314, residues 16-292: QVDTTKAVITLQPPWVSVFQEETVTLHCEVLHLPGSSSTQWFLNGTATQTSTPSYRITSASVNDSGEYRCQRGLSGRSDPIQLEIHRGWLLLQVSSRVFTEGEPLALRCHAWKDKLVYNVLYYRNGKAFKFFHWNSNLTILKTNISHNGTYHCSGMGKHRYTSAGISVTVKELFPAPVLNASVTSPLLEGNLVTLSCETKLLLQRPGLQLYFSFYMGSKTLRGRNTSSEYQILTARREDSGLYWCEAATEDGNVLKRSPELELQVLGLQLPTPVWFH
UniProt P08637, residues 17-208: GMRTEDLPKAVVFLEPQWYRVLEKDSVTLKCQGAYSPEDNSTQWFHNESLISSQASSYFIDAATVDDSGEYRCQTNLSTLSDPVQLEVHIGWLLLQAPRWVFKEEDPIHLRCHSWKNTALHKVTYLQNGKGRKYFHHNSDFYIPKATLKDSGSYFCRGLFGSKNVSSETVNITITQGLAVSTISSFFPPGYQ
UniProt P12318, residues 34-217: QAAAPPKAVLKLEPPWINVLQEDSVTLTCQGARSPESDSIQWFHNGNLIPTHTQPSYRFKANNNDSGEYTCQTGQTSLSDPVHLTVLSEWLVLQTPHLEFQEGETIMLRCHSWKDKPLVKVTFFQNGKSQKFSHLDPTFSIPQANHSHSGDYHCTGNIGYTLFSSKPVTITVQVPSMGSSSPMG
UniProt P02768, residues 25-609: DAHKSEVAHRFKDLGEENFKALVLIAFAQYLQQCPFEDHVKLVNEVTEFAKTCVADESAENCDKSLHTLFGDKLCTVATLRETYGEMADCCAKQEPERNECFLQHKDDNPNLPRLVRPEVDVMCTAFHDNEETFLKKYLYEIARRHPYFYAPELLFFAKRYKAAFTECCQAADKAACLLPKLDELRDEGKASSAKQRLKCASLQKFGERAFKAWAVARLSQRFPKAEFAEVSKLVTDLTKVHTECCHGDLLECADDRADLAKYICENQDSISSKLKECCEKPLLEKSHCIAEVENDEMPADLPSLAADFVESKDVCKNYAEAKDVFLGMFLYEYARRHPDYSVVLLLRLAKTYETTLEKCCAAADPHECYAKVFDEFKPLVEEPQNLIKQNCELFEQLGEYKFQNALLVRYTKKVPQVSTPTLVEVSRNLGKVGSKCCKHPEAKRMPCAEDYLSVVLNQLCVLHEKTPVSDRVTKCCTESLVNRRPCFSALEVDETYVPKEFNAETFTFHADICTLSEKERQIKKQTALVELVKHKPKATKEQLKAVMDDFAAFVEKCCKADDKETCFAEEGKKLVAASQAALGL

Measured: binding

Human Serum Albumin (HSA) (from UniProt P02768 25-609)
no binding: [1] | [2] | [3] | [4]
